Measurements reported in PubChem BioAssay AID602196 (INSERM, 2012).

Aim: 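Modifiers of cisplatin sensitivity in A549 cells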
System: human A549 lung cancer cells
Reagents: siRNA pair against human genes
Time to read-out: 48 h transfection before cisplatin; time from cisplatin to read-out not stated
Treatment: cisplatin at a dose killing half of control-siRNA cells; exact dose and duration not given
Detection: 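Shift in cisplatin death relative to control siRNA, from -50 (all cells die) to +50 (no cells die); siRNAs harmful on their own scored 0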
Reading the numbers: two-siRNA summed score (-2 to +2): higher = both siRNAs protect from cisplatin killing; -2 means both sensitise; mean protection from cisplatin (shift in death) and protection from cisplatin (shift in death), siRNA C and protection from cisplatin (shift in death), siRNA D: higher = protection from cisplatin killing
Hit rule: 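Each siRNA scores 0 if harmful alone by LDH or WST-1, otherwise +1 if it reduces and -1 if it increases cisplatin killing; a gene is active when both siRNAs agree (sum +2 or -2)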
Calls: active = both siRNAs shift cisplatin killing the same way; inactive = no consistent shift, or siRNA harmful alone
Here is one part, drawn at random, of about 23,000 deposited reagents. 455 of them (2%) count as active. 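Active includes both protection and sensitisation; some change values fall well beyond the stated -50 to +50 range.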 No sequences are given here. Not stated in the record: the amount of reagent.

target gene	two-siRNA summed score (-2 to +2)	mean protection from cisplatin (shift in death) (%)	protection from cisplatin (shift in death), siRNA C (%)	protection from cisplatin (shift in death), siRNA D (%)	outcome
TSR1	0	8	14.9	1.2	inactive
INSIG2	0	1.5	-2.8	5.8	inactive
SAMD7	0	1.1	-2.7	4.9	inactive
OR5AU1	0	3.9	-3.8	11.7	inactive
NPRL2	0	-27	-0.4	-53.6	inactive
ZNF775	0	2.2	-11.9	16.3	inactive
CALD1	-1	3.3	15.3	-8.7	inactive
HEXA	0	-15.9	-32.7	1	inactive
LINC00905	0	-5.2	-21	10.6	inactive
TMEM86B	0	4.4	8	0.9	inactive
LOC401057	0	6.8	5.5	8.2	inactive
EDF1	-1	-9.6	-18.5	-0.8	inactive
PGM2L1	0	4.3	3.2	5.4	inactive
ARL4A	-1	-0.4	-16.3	15.4	inactive
FGF23	-1	-8.3	-17.8	1.3	inactive
PAM16	0	14.4	12.2	16.6	inactive
CCL19	0	-1.5	-5.2	2.2	inactive
LOC401149	0	-2	4.3	-8.3	inactive
LOC440766	1	14	14.5	13.5	inactive
LOC389695	0	8.9	9.1	8.6	inactive
LOC400464	0	6.6	3.9	9.2	inactive
WBP4	0	6.7	-1.2	14.5	inactive
DRG1	0	-0.3	14	-14.6	inactive
TXNDC12	0	2.1	5.2	-0.9	inactive
SETDB1	1	6.2	16.3	-4	inactive
VASH2	0	2.8	11.6	-6	inactive
ASH1L	0	-17.3	-9.1	-25.4	inactive
LOC390424	1	12.2	19.5	4.9	inactive
SSUH2	0	-6.7	-8.4	-4.9	inactive
LOC440074	0	-2	-4.5	0.5	inactive
CALR	0	-14.4	-24.7	-4.1	inactive
LOC284067	0	7	-3.6	17.5	inactive
SOFU1	1	11.1	-5.2	27.3	inactive
PLGLB2	-1	-9.8	11.3	-30.8	inactive
SNX3	0	12.1	14.7	9.4	inactive
LOC391365	0	18.7	25.5	11.9	inactive
LOC391345	2	22.8	24.8	20.7	active
DRGX	0	2.2	7.1	-2.7	inactive
FCHSD2	1	8.7	6.1	11.3	inactive
FSHB	0	4.4	0	8.7	inactive
SDHAF2	0	-2.5	-3.7	-1.2	inactive
INPP1	0	-9.2	-0.4	-17.9	inactive
XRRA1	0	0.5	2.9	-1.9	inactive
KCNH7	0	-17.5	-35.1	0.1	inactive
TAAR2	0	0	16.7	-16.7	inactive
RNFT1	0	-1.8	-7.7	4	inactive
CKLF	0	-14.4	-7.4	-21.3	inactive
C2CD2	-1	-13	-18.9	-7	inactive
CLEC12A	0	6.9	11.2	2.6	inactive
OR5M8	0	-1.6	6	-9.3	inactive
SLC1A7	1	7	1.7	12.3	inactive
EPN2	-1	-13.7	-33.4	6.1	inactive
IFT80	0	7.8	8.8	6.8	inactive
C1QTNF9	1	8.7	8.2	9.3	inactive
C1QA	1	11.7	5	18.5	inactive
NNT	0	-9.2	-10.3	-8.2	inactive
CCT2	-1	-9.9	-5.2	-14.6	inactive

Individual results from the entries so far.
TMEM86B, mean protection from cisplatin (shift in death) (%) → 4.4
Entry of ARL4A under “two-siRNA summed score (-2 to +2)”: -1
Value of LOC389695 in “protection from cisplatin (shift in death), siRNA C (%)”: 9.1
TAAR2, mean protection from cisplatin (shift in death) (%) → 0
INPP1, outcome: inactive
